# According to the supplement of paper PMC10338343:
# ± gives the standard deviation. This is a selection; strong and weak results do not stand in their true shares. The uncertainty is large for many entries.
# System: MILI (PIWIL2) piRISC loaded with L1MC piRNA (26 nt)
# Experiment: pre-steady-state target cleavage rate (min^-1); MIWI and MILI are mouse PIWI proteins and EfPiwi is from a freshwater sponge; tags in brackets are library labels; higher = faster piRNA-guided slicing of the target
# Settings: guide: L1MC piRNA 5'p-UAACUAAAUACUAUGCAAGCUGUAGG; auxiliary factor: none (no GTSF1)
# How it was run: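 Sequencing of uncleaved targets, normalised to depth and to weakly complementary targets, was the readout of this Cleave-'n-Seq assay. A transcribed, DNA-blocked target RNA library (0.1 nM) was mixed with 1 nM active affinity-purified piRISC carrying one synthetic guide, with or without 500 nM GTSF1 partner protein, in HEPES–potassium acetate buffer at 33 °C for 0–8 or 0–960 min. Three trials were pooled, k3 was capped at 0.0001 min^-1, and a burst-and-steady-state fit gave the pre-steady-state cleavage rate.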
row,Sequence,pre-steady-state target cleavage rate
1,UCCUGCUACAGGAAGCAUAGUAUUUACAAA,0.000221 ± 0.012
2,UCCUGGAAGUGCUUGCAUAGUAUUUAGAAA,0.000773 ± 0.0057
3,UCCUGGAUGUCGAAGCACAGUAUUUAGUUA,0.00118 ± 0.0047
4,UCCUCCUACAGCUUGCAUAGUAUUAUCUAA,0.00137 ± 0.0044
5,UCCUGGAUGUCGAAGCAUAGUAUUUAGUGUA,0.00218 ± 0.0033
6,UCCUGGAUGAGCUUGCAAUCUAUUUAGAAA,0.000105 ± 0.03
7,UCCUGGAUGAGCUUGCAUACAAUUUACAAA,0.000734 ± 0.0083
8,UCCUGGAUCAGCUUGCAUACAAUUUAGAAA,0.000666 ± 0.0082
9,UCCUGGAUCAGCUUCGAUAGUAUUUAGUAA,0.00109 ± 0.0076
10,UCCUCCUACAGCUUGCAUAGAAUUUACAAA,0.000793 ± 0.0052
11,UCCUGCUACAGCUUGCAUAGUAUUUAUUA,0.00119 ± 0.0052
12,UCCUGCUUCAGCUUCCAUAGUAUUUAGUUA,0.00123 ± 0.006
13,UCCUGGAACAGCUUGCAUAGUUUUUACAAA,0.000893 ± 0.007
14,UCCUGGAUGUGCUACGAUAGUAUUUAGAAA,0.000503 ± 0.0098
15,UCCUGCUACAGCUUGCAUAGUAUAAUGAAA,0.00116 ± 0.006
16,UCCUGGAUGAGCUUGGAUUGUAUUUAGUUA,0.0017 ± 0.0036
17,UCCUGGAAGUCCUUGCAUAGUAUUUAGAAA,0.00158 ± 0.0036
18,UCCUGCUACAGCUUGCAUAGUAUUAUCUAA,0.000942 ± 0.0053
19,UCCUGGAUGUCGUUGCAUAGUUAAAUCAAA [g10:g18:cont:t1A],0.00023 ± 0.019
20,UCCUGGAACAGCUUCCAUAGUAUUUACUUA,0.00044 ± 0.012
21,UCCUGCUACAGCUUGCAUAGAUUUAGUUA,0.0014 ± 0.0051
22,UCCUGGAUGUGCUUCCAUAGUAUUUAGUUA,0.00208 ± 0.0032
23,UCCUGGAACAGCUUCCAUAGUAUUUACAAA,0.000388 ± 0.017
24,UCCUGGAUGUCCUUGCAAUGUAUUUAGUAA,0.00239 ± 0.0033

# 5 entries from above, as tab-separated lines.
row	Sequence	pre-steady-state target cleavage rate
8	UCCUGGAUCAGCUUGCAUACAAUUUAGAAA	0.000666 ± 0.0082
9	UCCUGGAUCAGCUUCGAUAGUAUUUAGUAA	0.00109 ± 0.0076
10	UCCUCCUACAGCUUGCAUAGAAUUUACAAA	0.000793 ± 0.0052
11	UCCUGCUACAGCUUGCAUAGUAUUUAUUA	0.00119 ± 0.0052
12	UCCUGCUUCAGCUUCCAUAGUAUUUAGUUA	0.00123 ± 0.006
